Data reported in article PMC9776959.
Results are given in words; binding and its absence hold for the method and conditions named. In cells and extracts the contact can be indirect. Binding calls can cover weak binding; strength is not graded here. Tags and fused reporters may be left off the sequences shown.

Biological target: T1, 3xFLAG-TRIP13 (human) (UniProt Q15645)
T1 sequence: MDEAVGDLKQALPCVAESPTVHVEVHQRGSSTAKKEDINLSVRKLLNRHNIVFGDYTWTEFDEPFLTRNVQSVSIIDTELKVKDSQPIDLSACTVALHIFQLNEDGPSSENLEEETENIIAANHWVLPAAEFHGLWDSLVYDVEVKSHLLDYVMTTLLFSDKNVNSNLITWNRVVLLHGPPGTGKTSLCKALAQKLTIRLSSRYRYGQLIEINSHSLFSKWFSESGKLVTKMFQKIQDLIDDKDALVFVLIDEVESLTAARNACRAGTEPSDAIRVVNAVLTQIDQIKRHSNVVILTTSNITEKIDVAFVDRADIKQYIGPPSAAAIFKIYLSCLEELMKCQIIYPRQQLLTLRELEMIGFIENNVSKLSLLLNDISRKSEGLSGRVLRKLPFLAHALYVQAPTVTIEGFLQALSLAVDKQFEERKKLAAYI
Experiment: co-IP; FLAG immunoprecipitation from cells overexpressing 3xFLAG-TRIP13 and the Myc-MRE11 domain deletion series; buffer X (100 mM Tris-HCl, 250 mM NaCl, 1 mM EDTA, 1% NP-40) with Benzonase, 4 °C

binding | Substance
binds | Myc-MRE11 capping domain deletion (domain or fragment)
binds | Myc-MRE11 C-terminal domain deletion (domain or fragment)
